In paper PMC11900805:
No constants are given. Whether binding was seen depends on the method and setting. In cells and extracts the contact can be indirect. Some binding calls cover weakened binding; strength is not graded here.

The chains behind the UniProt entries cited, without tags or fusion partners.
UniProt O75362: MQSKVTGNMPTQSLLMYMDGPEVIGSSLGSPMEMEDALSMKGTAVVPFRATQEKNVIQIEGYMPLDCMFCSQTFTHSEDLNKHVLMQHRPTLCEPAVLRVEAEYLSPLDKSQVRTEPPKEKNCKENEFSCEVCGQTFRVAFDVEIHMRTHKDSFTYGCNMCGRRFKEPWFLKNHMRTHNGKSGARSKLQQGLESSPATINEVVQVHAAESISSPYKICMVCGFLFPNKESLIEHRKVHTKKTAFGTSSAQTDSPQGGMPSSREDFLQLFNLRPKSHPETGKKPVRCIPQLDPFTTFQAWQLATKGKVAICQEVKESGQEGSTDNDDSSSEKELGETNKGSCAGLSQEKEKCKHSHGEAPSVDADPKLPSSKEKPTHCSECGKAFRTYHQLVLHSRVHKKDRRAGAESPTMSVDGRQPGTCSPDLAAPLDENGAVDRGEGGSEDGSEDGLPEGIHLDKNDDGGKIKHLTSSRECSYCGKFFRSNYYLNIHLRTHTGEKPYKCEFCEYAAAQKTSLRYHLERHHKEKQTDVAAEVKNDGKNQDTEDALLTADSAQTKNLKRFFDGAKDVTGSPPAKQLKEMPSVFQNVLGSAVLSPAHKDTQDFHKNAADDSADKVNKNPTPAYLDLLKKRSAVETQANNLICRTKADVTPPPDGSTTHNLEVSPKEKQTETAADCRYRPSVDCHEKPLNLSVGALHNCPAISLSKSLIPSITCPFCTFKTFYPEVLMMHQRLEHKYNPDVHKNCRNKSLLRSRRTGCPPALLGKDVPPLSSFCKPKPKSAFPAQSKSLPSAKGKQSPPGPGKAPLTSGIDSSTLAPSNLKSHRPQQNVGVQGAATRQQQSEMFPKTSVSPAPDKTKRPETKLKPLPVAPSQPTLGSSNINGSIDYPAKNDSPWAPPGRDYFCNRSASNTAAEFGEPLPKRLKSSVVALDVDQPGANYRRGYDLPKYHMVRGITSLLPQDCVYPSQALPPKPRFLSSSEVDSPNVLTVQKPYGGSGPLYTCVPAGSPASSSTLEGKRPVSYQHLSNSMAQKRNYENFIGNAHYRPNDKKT
UniProt P32519: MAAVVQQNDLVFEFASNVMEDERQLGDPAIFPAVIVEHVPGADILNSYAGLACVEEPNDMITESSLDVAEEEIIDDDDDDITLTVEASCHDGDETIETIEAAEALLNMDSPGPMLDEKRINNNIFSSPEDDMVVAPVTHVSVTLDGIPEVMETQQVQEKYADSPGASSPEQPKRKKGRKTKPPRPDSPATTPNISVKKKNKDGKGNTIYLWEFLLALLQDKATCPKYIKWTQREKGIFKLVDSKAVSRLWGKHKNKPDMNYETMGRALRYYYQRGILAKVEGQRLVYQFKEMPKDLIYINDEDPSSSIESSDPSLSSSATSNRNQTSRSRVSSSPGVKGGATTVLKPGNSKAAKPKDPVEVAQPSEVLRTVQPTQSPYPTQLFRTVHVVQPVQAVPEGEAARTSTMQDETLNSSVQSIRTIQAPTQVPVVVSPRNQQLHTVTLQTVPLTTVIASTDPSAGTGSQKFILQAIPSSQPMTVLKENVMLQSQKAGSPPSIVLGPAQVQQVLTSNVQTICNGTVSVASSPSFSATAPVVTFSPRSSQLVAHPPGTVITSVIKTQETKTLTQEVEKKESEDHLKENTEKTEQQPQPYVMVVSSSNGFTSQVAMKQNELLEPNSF
UniProt Q14814: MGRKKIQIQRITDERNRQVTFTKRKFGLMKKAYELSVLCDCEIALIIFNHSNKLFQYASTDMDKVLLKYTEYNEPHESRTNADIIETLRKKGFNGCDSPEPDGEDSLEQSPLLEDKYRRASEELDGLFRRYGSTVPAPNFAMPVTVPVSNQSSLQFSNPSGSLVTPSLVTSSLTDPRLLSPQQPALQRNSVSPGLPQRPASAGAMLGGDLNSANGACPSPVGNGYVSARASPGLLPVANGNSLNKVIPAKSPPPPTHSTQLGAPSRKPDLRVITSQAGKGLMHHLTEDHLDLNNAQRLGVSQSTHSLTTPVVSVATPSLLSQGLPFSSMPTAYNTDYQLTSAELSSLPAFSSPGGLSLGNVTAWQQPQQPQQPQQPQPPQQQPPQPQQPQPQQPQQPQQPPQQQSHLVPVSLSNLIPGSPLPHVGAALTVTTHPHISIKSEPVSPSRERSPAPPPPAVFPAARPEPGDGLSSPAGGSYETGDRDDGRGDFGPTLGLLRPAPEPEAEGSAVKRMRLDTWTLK

Target: ZNF217-FLAG (full-length wild-type ZNF217 fused to FLAG) (human) (UniProt O75362)
Assay: co-IP; MV4-11 cells transduced with ZNF217-FLAG lentivirus, lysed in NP-40 buffer with protease inhibitor; supernatant incubated with protein A/G beads and anti-flag antibody or IgG, washed three times; Western blot

| binding | Substance |
| --- | --- |
| binds | ELF1 (from UniProt P32519 1-619) |
| binds | MEF2D (from UniProt Q14814 1-521) |
